Results taken from article PMC11156899, “High-throughput screening unveils nitazoxanide as a potent PRRSV inhibitor by targeting NMRAL1” (Nature Communications, 2024).
Results are given in words; binding and its absence hold for the method and conditions named. Some binding calls cover weakened binding; strength is not graded here.

Chains of the proteins cited; added tags and fusions are not shown.
UniProt Q9HBL8: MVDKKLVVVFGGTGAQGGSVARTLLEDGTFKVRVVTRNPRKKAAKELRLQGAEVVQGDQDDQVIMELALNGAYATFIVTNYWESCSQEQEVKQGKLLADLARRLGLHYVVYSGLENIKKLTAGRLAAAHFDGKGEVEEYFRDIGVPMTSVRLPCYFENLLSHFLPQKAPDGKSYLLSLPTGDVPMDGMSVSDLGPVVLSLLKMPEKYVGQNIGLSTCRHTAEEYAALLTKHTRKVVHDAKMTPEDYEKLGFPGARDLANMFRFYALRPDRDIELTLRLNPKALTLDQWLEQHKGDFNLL

Biological target: NMRAL1 (endogenous, HEK-293T cells) (human (endogenous in HEK-293T)) (UniProt Q9HBL8)
Assay: SDS-PAGE and Western blot of the dimer band (CETSA-WB samples); HEK-293T cell lysate with 40 µM NTZ or DMSO, heated over a temperature range, soluble fraction blotted with anti-NMRAL1 antibody

NMRAL1 (endogenous, HEK-293T cells) (from UniProt Q9HBL8 1-299)
binding: binds
